According to PMC12040169 (PLOS Biology, 2025):
The other results are listed elsewhere or left out.

Each compound was assayed on T1, CTL2-GFP (C. trachomatis L2/434/Bu, GFP-expressing). Conditions: bulk GFP, single well; 28.5 h, 10 µM; inhibitor.
T1 construct: L2/434/Bu, GFP-expressing
Design: species or system HeLa; Intracellular C. trachomatis growth in HeLa cells, bulk GFP fluorescence relative to DMSO

Row | SMILES | % of control remaining [%]
1 | COc1ccccc1C1(O)CCN(Cc2ccccc2OCc2ccc3c(c2)OCO3)CC1 [CBK286337] | 95.9535
2 | O=C(CC1CCCC1)N1CCC(c2nnc(-c3ccsc3)o2)CC1 [CBK283381] | 70.8963
3 | Cn1c(=O)oc2cc(S(=O)(=O)NCc3ccccc3)ccc21 [CBK267568] | 133.967
4 | N#Cc1ccc(CNC(=O)c2ccc(-c3ccc(OC(F)(F)F)cc3)nc2)cc1 [CBK156249] | 100.822
5 | Cc1cc(=O)n2c3ccccc3n(CC(O)CN3CCN(C(c4ccccc4)c4ccccc4)CC3)c2c1C#N (stereo not drawn) [CBK268375] | 132.549
6 | c1ccc(CN2CCC3(CC2)CNCc2ccccc2O3)cc1 [CBK282605] | 120.945
7 | FC(F)(F)c1cccc(-c2cnn(-c3ccc4c(c3)OCO4)n2)c1 [CBK112664] | 121.916
8 | CC(=O)NCC1CC(N2CCSCC2)=NO1 (stereo not drawn) [CBK010367] | 101.21
9 | Cn1cc([C@@H]2CN(Cc3ccc(F)c(F)c3)C[C@H]2N)c2ccncc21 [CBK285179] | 126.304
10 | S=c1[nH]cnc2scc(-c3ccc(Cl)cc3)c12 [CBK094069] | 124.735
11 | CCN1CCN(C(=O)CN(c2ccccc2)S(=O)(=O)N(C)C)CC1 [CBK268222] | 96.0595
12 | O=C(COc1ccc(F)cc1)N1CCCC1c1cccc(Cc2ccc(F)cc2)n1 (stereo not drawn) [CBK286235] | 132.309
13 | Cc1cccc(CN2CCC[C@@H]3CN(C(=O)CC(C)C)C[C@@H]32)n1 [CBK285291] | 124.299
14 | Cc1[nH]nc(O)c1Cc1ccccc1F [CBK105306] | 62.324
15 | COc1ccc(C(=O)N(C)C)cc1OC [CBK015550] | 86.1939
16 | CN(C)C(=O)CN1CC[C@@H](c2ccccc2)[C@H](O)C1 [CBK283979] | 124.07
17 | COc1ccccc1C(CN)C1CCCCC1 (stereo not drawn) [CBK009878] | 128.589
18 | CCN1CCN(Cc2nc3c(c(=O)n(C)c(=O)n3C)n2CCc2ccccc2)CC1 [CBK269547] | 86.9589
19 | O=C(NCCCCNC(=O)c1scc(-c2ccccc2)c1C(=O)O)c1scc(-c2ccccc2)c1C(=O)O [CBK296086] | 124.367
20 | COc1cc(/C=C2\N=C(c3cc(Cl)ccc3OC)OC2=O)ccc1OC(=O)c1ccccc1 [CBK265069] | 135.14
21 | CCN(C(=O)C(C)N(C)Cc1c(C)nn(C2CCS(=O)(=O)C2)c1C)c1cccc2ccccc12 (stereo not drawn) [CBK295206] | 156.822
22 | Nc1ncnc(Nc2cc(C(F)(F)F)cc(C(F)(F)F)c2)n1 [CBK006617] | 122.055
23 | CCCOc1nccnc1N1CCNCC1 [CBK001839G] | 125.754
24 | NC(=O)CSc1nnc(COc2cccc(Cl)c2)n1-c1ccccc1 [CBK267685] | 123.896
25 | CCC(CC)C(=O)N1CCCC(c2cc3cccnc3[nH]2)C1 (stereo not drawn) [CBK284926] | 91.807
26 | Cc1nn(C)cc1-c1cncn1Cc1ccccc1CN(C)C [CBK281985] | 98.2952

Row | SMILES | % of control remaining [%]
27 | COc1ccccc1-c1c(O)n[nH]c1CCC1CCCC1 [CBK075128] | 130.629
28 | Nc1ncc(-c2ccccc2CO)nc1Nc1ccc2[nH]ccc2c1 [CBK063843] | 124.096
29 | CNC(=O)c1cccc(NC(=O)C(C)N(C)Cc2cnc(C)s2)c1 (stereo not drawn) [CBK305735] | 101.002
30 | NS(=O)(=O)c1ccc(S(=O)(=O)N2CCN(C/C=C/c3ccccc3)CC2)cc1 [CBK266723C] | 157.953
31 | O=C(NCc1ccccc1)c1cccc(NC(=O)c2cc(-c3ccncc3)nc3ccc(Cl)cc23)c1 [CBK267769] | 94.8856
32 | CCN(CC)c1ccc(NC(=O)N(CCCN2CCOCC2)Cc2ccc(OC)c(OC)c2)cc1 [CBK159168] | 118.516
33 | Cc1ccc(C(=O)NCCc2ccc(S(N)(=O)=O)cc2)c(N2CCN(C(=O)c3ccco3)CC2)n1 [CBK076345] | 141.101
34 | NC(=O)c1c(NC(=O)c2cnn3cccnc23)sc2c1CCCC2 [CBK268437] | 150.044
35 | c1ccc2c(OCCOCCN3CCCCC3)cccc2c1 [CBK262000] | 110.862
36 | COc1cc(/C=N/n2cnnc2)ccc1OCCOc1ccc(C(C)(C)C)cc1 [CBK263762] | 108.127
37 | CCN(CC)C(=O)N1CCC(c2cccnc2)CC1 [CBK283535] | 124.398
38 | O=C(C[C@@H]1O[C@H](CNCc2cccc(Cl)c2)[C@@H](O)[C@H]1O)N1CCc2ccccc21 [CBK288918] | 127.036
39 | c1ccc(-c2cc(CC3(NCC4CCCCC4)COC3)no2)nc1 [CBK289644] | 101.527
40 | COCCNc1cc(-c2ccc(Cl)cc2)ncn1 [CBK090797] | 101.956
41 | CN(C)CCNC(=O)Cc1csc(-c2ccc(Cl)cc2)n1 [CBK107299] | 106.677
42 | O=C([C@@H]1Cc2c([nH]c3ccccc23)C2(CCN(Cc3ccccc3)C2)N1)N1CCOCC1 (stereo partly drawn) [CBK059363T] | 115.939
43 | CSc1ccc(-c2nccnc2OCCN(C(C)C)C(C)C)cc1 [CBK106805] | 83.6715
44 | CCSc1nc(-c2ccncc2)ccc1C#N [CBK288539] | 110.981
45 | Cc1ccc2oc(-c3cccc(NC(=O)c4ccccc4C(=O)O)c3)nc2c1 [CBK300481] | 132.76
46 | NC(=O)c1cccc(-c2nccnc2N2CCN(CCO)CC2)c1 [CBK036726] | 135.869
47 | CN(C)CCN(C)C(=O)c1ccc(-c2cccc(Cl)c2Cl)nc1N(C)C [CBK106082] | 100
48 | CCN(CC)C(=O)C1CCCN(C(=O)NC2CCc3ccccc32)C1 (stereo not drawn) [CBK156156] | 115.05
49 | Oc1cccc(OCCOc2nc3ccccc3nc2N2CCCC2)c1 [CBK115901] | 107.859
50 | CCn1cc(C(=O)N2CCc3sccc3C2)c(=O)c2ccc(C)nc21 [CBK305006] | 124.011
51 | CC(=O)N1CCc2c([nH]c3c(C)cccc23)C12CCCN(CCCC#N)C2 (stereo not drawn) [CBK039705] | 113.691
52 | CC(C)(CNC(=O)Cn1cccc(C(=O)NC2CCCCC2)c1=O)c1cccc(F)c1 [CBK286069] | 124.546

2 compounds picked at random from the list so far, as already listed:
Row | SMILES | % of control remaining [%]
41 | CN(C)CCNC(=O)Cc1csc(-c2ccc(Cl)cc2)n1 [CBK107299] | 106.677
43 | CSc1ccc(-c2nccnc2OCCN(C(C)C)C(C)C)cc1 [CBK106805] | 83.6715

Additional results follow.

Row | SMILES | % of control remaining [%]
53 | Cn1c(=O)c2c(ncn2CC(=O)Nc2ccc(OCc3ccccc3)cc2)n(C)c1=O [CBK130478] | 100
54 | O=C(O)c1ccccc1-c1ccccc1C(=O)Nc1ccccc1-c1ccccc1 [CBK262843] | 100
55 | Cc1nc(C2CCCN(C(=O)C3CCC3)C2)nc2c1CCCN2Cc1ccccc1 (stereo not drawn) [CBK286257] | 104.043
56 | CCc1nn(CC(=O)N(C(C)C)C(C)C)c(=O)c2cc3occc3n12 [CBK283658] | 110.849
57 | Nc1ccc(Cl)cc1C(O)(CCCN1CCCCC1)c1ccccc1 (stereo not drawn) [CBK023107] | 143.697
58 | CC(=O)CSc1nsc(SCC(C)=O)n1 [CBK006702] | 110.643
59 | Cc1cccc(-c2ncc(NC(=O)CC3OC(=O)c4ccccc43)nc2-c2ccc(N)cc2)c1 (stereo not drawn) [CBK036749] | 175.298
60 | COCC1CN(C(=O)Nc2ncc(Cc3ccc(C)c(Cl)c3)s2)CCO1 (stereo not drawn) [CBK306286] | 166.201
61 | COc1ccc([C@@]23CC[C@@H](NC(=O)Nc4ncc(Cl)s4)C[C@@H]2N(C)CC3)cc1OC [CBK051620T] | 99.1381
62 | CS(=O)(=O)Nc1nccnc1OC1CCN(CCc2ccccc2)CC1 [CBK084279] | 100.459
63 | COc1cc2nc(NC(=O)C3COc4ccccc4O3)sc2cc1OC (stereo not drawn) [CBK287702] | 116.825
64 | O=C(O)c1cccc(-n2cc(-c3ccc(F)cc3F)nn2)c1 [CBK112998] | 122.238
65 | O=C1CO[C@H]2CN(Cc3ncc[nH]3)C[C@H]2N1Cc1ccncc1 [CBK289259] | 102.182
66 | CCn1c(CNC(=O)c2cn3ccc(C)cc3n2)nc2ccccc21 [CBK281394] | 93.5846
67 | O=C(NCc1ccccn1)C1CCC(Cn2c(=S)[nH]c3ccccc3c2=O)CC1 (stereo not drawn) [CBK266645] | 152.959
68 | CCOC(=O)c1cnn(C2CCCN(Cc3cncs3)C2)c1 (stereo not drawn) [CBK304039] | 156.719
69 | CC(=O)N[C@@H](Cc1c[nH]cn1)C(=O)Nc1cc2ccccc2c(Br)n1 [CBK063302] | 110.392
70 | O=C(O)COc1c(-c2ccco2)oc2ccccc2c1=O [CBK269262] | 141.129
71 | COc1ccccc1-c1cc(C(F)F)nc(S)c1C#N [CBK288358] | 122.75
72 | COc1ccc(C2NC(C(=O)O)C3C(=O)N(c4ccc(C)cc4)C(=O)C23)c(OC)c1 (stereo not drawn) [CBK287233] | 100
73 | CC(C)n1nnnc1-c1ccccc1NS(=O)(=O)C1CC1 [CBK305509] | 148.462
74 | c1ccc([C@@H]2CN(Cc3cccnc3)C[C@H]2c2cc[nH]n2)cc1 [CBK285160] | 117.714
75 | Cc1ccccc1CN1CCN(CC(=O)Nc2ccccc2C(N)=O)CC1 [CBK270296] | 139.102
76 | CCCC/C=C/c1cnc2[nH]c(=O)n(Cc3ccccn3)c2n1 [CBK064365] | 145.901
77 | CN(C)CCN(C)C(=O)c1ccc(-c2cccc(C(=O)NCCO)c2)nc1NCC1CC1 [CBK076603] | 97.9964
78 | CC[C@H](Cn1c(=O)oc2ccccc21)NC(=O)C1CCCC1 [CBK284542] | 93.4741

Of the compounds above, these have a CF3 group:
Row | SMILES | % of control remaining [%]
4 | N#Cc1ccc(CNC(=O)c2ccc(-c3ccc(OC(F)(F)F)cc3)nc2)cc1 [CBK156249] | 100.822
7 | FC(F)(F)c1cccc(-c2cnn(-c3ccc4c(c3)OCO4)n2)c1 [CBK112664] | 121.916
22 | Nc1ncnc(Nc2cc(C(F)(F)F)cc(C(F)(F)F)c2)n1 [CBK006617] | 122.055
